Source: article doi:10.1101/2020.06.05.115881
Results are given in words; binding and its absence hold for the method and conditions named. Binding seen in cells or lysates may run through a third protein. Some entries that bind do so weakly or less than the wild type.

Chains of the proteins cited; added tags and fusions are not shown.
UniProt Q62296: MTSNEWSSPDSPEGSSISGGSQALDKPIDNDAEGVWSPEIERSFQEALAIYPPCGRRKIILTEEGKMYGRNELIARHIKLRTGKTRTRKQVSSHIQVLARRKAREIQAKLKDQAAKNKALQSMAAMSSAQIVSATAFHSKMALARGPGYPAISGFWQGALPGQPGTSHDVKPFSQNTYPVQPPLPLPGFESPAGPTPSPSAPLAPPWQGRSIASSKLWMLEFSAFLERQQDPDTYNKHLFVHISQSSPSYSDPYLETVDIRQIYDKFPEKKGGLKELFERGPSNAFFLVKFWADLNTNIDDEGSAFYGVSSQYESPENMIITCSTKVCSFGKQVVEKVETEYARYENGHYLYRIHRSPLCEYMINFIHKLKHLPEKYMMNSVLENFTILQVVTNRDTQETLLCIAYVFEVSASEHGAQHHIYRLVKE
UniProt Q02248: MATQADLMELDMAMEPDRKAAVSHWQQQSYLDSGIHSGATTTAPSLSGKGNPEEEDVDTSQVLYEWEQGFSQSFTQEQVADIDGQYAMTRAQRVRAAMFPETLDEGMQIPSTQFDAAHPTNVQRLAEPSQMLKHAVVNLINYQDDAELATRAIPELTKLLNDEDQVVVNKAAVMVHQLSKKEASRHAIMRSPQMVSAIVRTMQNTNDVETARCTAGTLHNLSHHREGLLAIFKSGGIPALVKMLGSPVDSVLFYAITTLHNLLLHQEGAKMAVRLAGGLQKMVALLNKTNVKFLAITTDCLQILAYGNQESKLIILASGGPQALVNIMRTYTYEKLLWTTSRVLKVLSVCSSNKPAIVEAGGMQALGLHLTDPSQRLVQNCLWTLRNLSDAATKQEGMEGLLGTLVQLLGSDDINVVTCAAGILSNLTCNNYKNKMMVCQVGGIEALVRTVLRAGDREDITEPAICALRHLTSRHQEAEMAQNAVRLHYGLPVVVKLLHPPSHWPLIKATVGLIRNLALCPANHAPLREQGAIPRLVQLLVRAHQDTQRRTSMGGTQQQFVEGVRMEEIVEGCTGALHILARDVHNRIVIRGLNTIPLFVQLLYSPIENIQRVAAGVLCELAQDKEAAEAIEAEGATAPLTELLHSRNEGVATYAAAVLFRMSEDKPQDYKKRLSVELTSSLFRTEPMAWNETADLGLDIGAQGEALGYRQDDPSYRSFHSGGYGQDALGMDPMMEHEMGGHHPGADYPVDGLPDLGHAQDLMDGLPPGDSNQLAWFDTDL
UniProt P46938: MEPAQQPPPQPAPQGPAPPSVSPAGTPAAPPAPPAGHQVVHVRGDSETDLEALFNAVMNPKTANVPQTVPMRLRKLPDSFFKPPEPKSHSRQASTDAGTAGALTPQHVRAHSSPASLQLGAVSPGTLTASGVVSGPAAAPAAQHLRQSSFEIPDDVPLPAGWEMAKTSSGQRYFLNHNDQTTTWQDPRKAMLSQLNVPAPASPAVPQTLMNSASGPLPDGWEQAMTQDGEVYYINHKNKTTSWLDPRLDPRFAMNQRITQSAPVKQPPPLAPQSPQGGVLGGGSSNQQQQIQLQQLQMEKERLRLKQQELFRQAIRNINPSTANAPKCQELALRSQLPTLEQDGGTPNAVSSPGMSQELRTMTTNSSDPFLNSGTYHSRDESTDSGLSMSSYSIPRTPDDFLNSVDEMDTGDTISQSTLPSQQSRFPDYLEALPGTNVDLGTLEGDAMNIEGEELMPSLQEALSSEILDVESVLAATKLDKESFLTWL

Key:
[1] = molecular target: Tead4 (mouse (endogenous in Wnt-Met spheres)) (UniProt Q62296); experiment: co-IP
[2] = molecular target: wildtype β-catenin (mouse (endogenous in Wnt-Met spheres)) (UniProt Q02248); experiment: co-IP

binding [1]: binds
binding [2]: binds
Substance: Active YAP (Yes-associated protein) (from UniProt P46938 1-488)
